Data reported in paper PMC5896025.
Construct, isoform or probe ends are uncertain for at least one entry. Where cells or extracts were used, other partners may take part.

Chains of the proteins cited; added tags and fusions are not shown. Lines headed by an entry give the natural chain unless they say otherwise; changes in a name come on top.
UniProt P20263, whole entry: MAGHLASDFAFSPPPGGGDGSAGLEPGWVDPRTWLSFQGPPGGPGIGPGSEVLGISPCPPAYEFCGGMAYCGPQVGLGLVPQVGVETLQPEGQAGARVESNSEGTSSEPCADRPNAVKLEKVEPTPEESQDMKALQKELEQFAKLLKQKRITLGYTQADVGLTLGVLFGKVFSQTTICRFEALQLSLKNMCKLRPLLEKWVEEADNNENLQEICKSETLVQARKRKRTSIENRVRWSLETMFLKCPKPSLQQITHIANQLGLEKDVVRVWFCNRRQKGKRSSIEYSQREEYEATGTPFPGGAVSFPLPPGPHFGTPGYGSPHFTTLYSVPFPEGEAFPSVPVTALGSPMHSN
UniProt P48432: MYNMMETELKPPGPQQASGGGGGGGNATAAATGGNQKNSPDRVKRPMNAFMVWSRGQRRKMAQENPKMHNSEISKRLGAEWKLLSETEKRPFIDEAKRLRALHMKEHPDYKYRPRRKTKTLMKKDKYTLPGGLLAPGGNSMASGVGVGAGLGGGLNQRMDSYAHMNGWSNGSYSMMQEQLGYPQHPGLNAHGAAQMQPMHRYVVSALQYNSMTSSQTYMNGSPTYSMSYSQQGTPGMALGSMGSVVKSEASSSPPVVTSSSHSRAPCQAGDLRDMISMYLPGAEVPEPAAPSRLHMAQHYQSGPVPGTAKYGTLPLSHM

Tests used:
[1] = target: GFP-Oct4 (N-terminal GFP fusion, GGSG linker) (mouse) (UniProt P20263); assay: FCS; settings: apparent Kd, protein in a lysate after overexpression, protein details: N-terminal GFP, GGSG linker, label: Cy5
[2] = target: mCherry-Sox2 (N-terminal mCherry fusion, GGSG linker) (mouse) (UniProt P48432); assay: FCS; settings: apparent Kd, no Oct4; protein in a lysate after overexpression; protein details: N-terminal mCherry, GGSG linker; label: Cy5
[3] = target: mCherry-Sox2 (N-terminal mCherry fusion, GGSG linker) (mouse) (UniProt P48432); assay: EMSA; settings: FCS/EMSA with 5 nM Cy5-DNA (FCS) and unpurified CHO nuclear lysate, protein in a lysate after overexpression, protein details: N-terminal mCherry, GGSG linker, label: Cy5
[4] = test system: GFP-Oct4 (N-terminal GFP fusion, GGSG linker) + mCherry-Sox2 (N-terminal mCherry fusion, GGSG linker); assay: FCS; settings: apparent Kd, protein in a lysate after overexpression, label: Cy5
[5] = test system: GFP-Oct4 (N-terminal GFP fusion, GGSG linker) + mCherry-Sox2 (N-terminal mCherry fusion, GGSG linker); assay: EMSA; settings: FCS/EMSA with 5 nM Cy5-DNA (FCS) and unpurified CHO nuclear lysate, protein in a lysate after overexpression, label: Cy5; for Kd: apparent Kd
[6] = test system: GFP-Oct4 (N-terminal GFP fusion, GGSG linker) + endogenous Sox2; assay: EMSA; settings: ES cell nuclear lysate; FCS/EMSA with 5 nM Cy5-DNA (FCS) and unpurified CHO nuclear lysate; protein in a lysate after overexpression; protein details: N-terminal GFP, GGSG linker; label: Cy5
[7] = target: GFP-Oct4 (N-terminal GFP fusion, GGSG linker) (mouse) (UniProt P20263); assay: EMSA; settings: ES cell nuclear lysate; FCS/EMSA with 5 nM Cy5-DNA (FCS) and unpurified CHO nuclear lysate; protein in a lysate after overexpression; protein details: N-terminal GFP, GGSG linker; label: Cy5
[8] = test system: GFP-Oct4 (N-terminal GFP fusion, GGSG linker) + mCherry-Sox2 (N-terminal mCherry fusion, GGSG linker); assay: FRET; settings: CHO nuclear extract, no FRET without DNA; protein in a lysate after overexpression; label: Cy5
[9] = no Sox2, assignment by order in sentence

With “CTATCATGCACCTTTGTTATGCATCTGCCGTCTGCCC (double strand) [Oct4-SO]” the Kd [1, 9] was 7.7 nM.

For “CTCGGGCAGCCATTGTGATGCATATAGGATTATTCA (double strand) [Sox2-SO]”, the Kd [2] was 66.1 nM and the Kd [1, 9] was 15.9 nM.

With “GCCACCCCACTTCATTGTAGCATTTCTTTCATTTGTC (double strand) [Fgfr2-S]” the Kd [2] was 81.2 nM and the binding result ([3]; monomer complex) was “binds”.

For “GGATGAGCCGTCATTGTTATGCTAGTGAAGTGCCGGC (double strand) [Utf1-SO]”, the Kd [2] was 44 nM, the Kd ([1]; no Sox2) was 32 nM and the Kd ([4]; GFP-Oct4 titrated, mCherry-Sox2 37 nM, cooperativity 1.6) was 19.8 nM. For the same sequence, the Kd ([4]; GFP-Oct4 titrated, mCherry-Sox2 72 nM, cooperativity 2.1) was 15.5 nM and the Kd ([4]; mCherry-Sox2 titrated, GFP-Oct4 40 nM, cooperativity 1.0) was 43.4 nM.

Sequence “TAGAAAACTCTTTGTTTGGATGCTAATGGGATACTTA (double strand) [Fgf4-SO]” has a Kd [2] of 70.2 nM, a Kd ([1]; no Sox2) of 42.5 nM and a Kd ([4]; GFP-Oct4 titrated, mCherry-Sox2 37 nM, cooperativity 0.9) of 49.1 nM. The Kd ([4]; GFP-Oct4 titrated, mCherry-Sox2 72 nM) was 25.3 nM, the Kd ([4]; mCherry-Sox2 titrated, GFP-Oct4 40 nM) was 24 nM and the binding result ([3]; monomer complex) was “binds”. It also gave a Kd ([5]; GFP-Oct4 titrated, mCherry-Sox2 72 nM, Table 1 gives this value as FCS, cooperativity 1.7) of 25.2 nM and a Kd ([5]; mCherry-Sox2 titrated, GFP-Oct4 40 nM, Table 1 prints 23.3 ± 1.2 (FCS), cooperativity 3.0) of 23.2 nM.

“TCCACCATGGACATTGTAATGCAAAAGAAGCTGTAAG (double strand) [Nanog-SO]” was tested, and the Kd [2] was 31.7 nM, the Kd ([1]; no Sox2) was 28.2 nM and the Kd ([4]; GFP-Oct4 titrated, mCherry-Sox2 37 nM, cooperativity 2.0) was 13.8 nM. The Kd ([4]; GFP-Oct4 titrated, mCherry-Sox2 72 nM, cooperativity 2.4) was 11.6 nM, the Kd ([4]; mCherry-Sox2 titrated, GFP-Oct4 40 nM, cooperativity 2.4) was 13.2 nM and the binding result ([3]; ES cell nuclear lysate) was “binds”. “TCCACCATGGACATTGTAATGCAAAAGAAGCTGTAAG (double strand) [Nanog-SO]”: binds [6]; binds [7]; binds ([5]; ES cell nuclear lysate). “TCCACCATGGACATTGTAATGCAAAAGAAGCTGTAAG (double strand) [Nanog-SO]”: binds [8].
